Our source for the binding values is paper doi:10.1101/2021.11.08.466737.

The target of assay [1] is His-SUMO-Mis18α_(188-233 I201A/L205A) (human) (UniProt Q9NYP9). The assay can be described thus: SEC-MALS.
The target in assay [2] is His-SUMO-Mis18α_(188-233 L212A/L215A/L219A) (human) (UniProt Q9NYP9). The assay can be described thus: SEC-MALS. (SEC sorts molecules by how far they enter the pores of the column.)

Results are given in words; binding and its absence hold for the method and conditions named. Where a sequence is shown, tags or fusion partners need not be part of it.

With EDKELFNLESRVEAEKSATQMEDVLKALQMKLWEAESKLSFATCKS (domain or fragment, UniProt Q9NYP9 188-233) [His-SUMO-Mis18α_(188-233 I201A/L205A)], the binding entry in assay [1] is reported as “no binding (tested: 2–6 mg/ml injected)”.
For the molecule EDKELFNLESRVEIEKSLTQMEDVAKAAQMKAWEAESKLSFATCKS (domain or fragment, UniProt Q9NYP9 188-233) [His-SUMO-Mis18α_(188-233 L212A/L215A/L219A)], in assay [2], the binding result is on record as “no binding (tested: 2–6 mg/ml injected)”.
